The source of these data is PMC7819943, “Rice protein-binding microarrays: a tool to detect cis-acting elements near promoter regions in rice”.

The chains behind the UniProt entries cited, without tags or fusion partners.
UniProt Q0JBA9, entry or part of it: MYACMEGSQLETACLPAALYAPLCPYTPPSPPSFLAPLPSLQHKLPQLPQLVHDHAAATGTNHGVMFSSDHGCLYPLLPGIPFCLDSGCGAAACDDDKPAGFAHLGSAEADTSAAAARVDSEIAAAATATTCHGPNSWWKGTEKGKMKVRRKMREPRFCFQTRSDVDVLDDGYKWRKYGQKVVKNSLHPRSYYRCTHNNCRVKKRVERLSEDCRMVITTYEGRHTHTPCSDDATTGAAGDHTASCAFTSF

The other results are listed elsewhere or left out.

For this experiment, the target named is OsWRKY34 (Oryza sativa, UniProt Q0JBA9 1-250). In words: protein-binding microarray (RPBM); PBS, 2% BSA, 51.3 ng/ul salmon testes DNA, 50 uM zinc acetate, 200 nM TF, 25 C, 1 h; high values mean tight binding. The settings on record: protein: recombinant; tags: N-terminal polyhistidine and DsRed monomer fusion (pET32a); label: CyDye5-dUTP incorporated in the synthesized complementary strand; 3' TTTTT single-stranded linker to array surface; dsDNA, one strand shown. In outline: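 The binding signal for each feature is its fluorescence intensity in arbitrary units. An Axon 4000B scanner was used to read a custom Agilent array that had been made double-stranded with Cy5-dUTP primer extension, blocked with 2% BSA, incubated at 25 °C for 1 h with 200 nM protein in PBS, 2% BSA, salmon testes DNA and 50 µM zinc acetate, and washed. The protein was an N-terminal polyhistidine–DsRed transcription factor fusion from E. coli BL21-CodonPlus, purified on Ni–NTA.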
With “GCTTTAACCTTCGGATCAATGCTTGTTCTATCATCTCATTCGGAGTCACCTAGTGCAG”, the binding signal is 9560 fluorescence intensity (a.u.).
With “CTTCCTCTTCCATTCCGTGTTTATCCTGTCATCTCTTCCACGGAGTCACCTAGTGCAG” the figure was 8480 fluorescence intensity (a.u.); with “ATCTTTTCAATGTATTGCGCTTCACTATCTCAGCCATTCCCGGAGTCACCTAGTGCAG”, 9320 fluorescence intensity (a.u.).
For the sequence “ATATGCGTTCATCCATGCTCCATCTCCATCTCCAGCTTAACGGAGTCACCTAGTGCAG”, the binding signal is 8050 fluorescence intensity (a.u.).
With “TGTTCTGCACTAACAGCCGTGCCAGTGTCACCTAATTATCCGGAGTCACCTAGTGCAG”, the binding signal was 9120 fluorescence intensity (a.u.).
For “GCCACGTGTCAATCCTGTGGTTCGGTTTCGTGGCGGTTGCCGGAGTCACCTAGTGCAG” the value was 8730 fluorescence intensity (a.u.); for “ACCTGTAATGCATATTTTCCCAGTTTCTCAATCATGAAGCCGGAGTCACCTAGTGCAG”, 9610 fluorescence intensity (a.u.).
With “AGTTGTTGTGTTTCTTTTTGTTTTCGAAATTTACTCGGAACGGAGTCACCTAGTGCAG” the figure was 9440 fluorescence intensity (a.u.); with “CAAAAAATATCTAATGTTATATCGCTACTCCTTTTTTTTTCGGAGTCACCTAGTGCAG”, 9010 fluorescence intensity (a.u.).
For the sequence “TCCAAGAAAATATTTCCGAATTCGTTTCCGTTTTCGAAAACGGAGTCACCTAGTGCAG”, the binding signal was 8060 fluorescence intensity (a.u.).
With “GCATTTTATTTTCTTTTCTGAAACCTTTATATCATTTTTTCGGAGTCACCTAGTGCAG” the figure was 11300 fluorescence intensity (a.u.); with “TTGTAGTAGATTTTGTTGGTTATTTGAAGTGGTAATATGACGGAGTCACCTAGTGCAG”, 8520 fluorescence intensity (a.u.); with “GAGGCGGGTGATAGCGCGGTGGGGCGGTGGCGGCGGTGGACGGAGTCACCTAGTGCAG”, 13000 fluorescence intensity (a.u.).
Regarding “ATTGTTGGTAGTGTGATCTTCTCCCTGTTTTGCAACAATGCGGAGTCACCTAGTGCAG”, the binding signal is 8910 fluorescence intensity (a.u.).
For “GGGTCGTGAAGGAGACGGGGATGGATTTCTACGGGTGCATCGGAGTCACCTAGTGCAG” the value was 8150 fluorescence intensity (a.u.); for “GTGGGGTGGCTTGATTTTTCCTTGAGTGAAATGGGTTGGACGGAGTCACCTAGTGCAG”, 11800 fluorescence intensity (a.u.); for “GGTCAGGAAGCTCAATTTTTTTTTACACGGCATGAAATTCCGGAGTCACCTAGTGCAG”, 8630 fluorescence intensity (a.u.).
For “TTACTGCAACTAGTTTTTGATAACCTTTTCACATGAGTTCCGGAGTCACCTAGTGCAG” the value was 8140 fluorescence intensity (a.u.).
With “CCCAAACCTCACCGCCGCTCGATCCCATCCACCGCCCATGCGGAGTCACCTAGTGCAG” the figure was 10900 fluorescence intensity (a.u.); with “GTCCTGGTTGCCCTCGATCCGGCAGTTGAAGAAGATGCTCCGGAGTCACCTAGTGCAG”, 8720 fluorescence intensity (a.u.).
As for “CCTGGACTCTCTCACTATATTTAACTTCATGACCACTCCGCGGAGTCACCTAGTGCAG”, the binding signal was 13000 fluorescence intensity (a.u.).
With “TTATCTCCTGTTTTCTTCTCAGGCTTTGCTAAAACGTGCTCGGAGTCACCTAGTGCAG” the figure was 10800 fluorescence intensity (a.u.); with “CACCCTTACCTTGGCCTCCTGTGCCGCTGCACATATATATCGGAGTCACCTAGTGCAG”, 8130 fluorescence intensity (a.u.); with “GTTGGGAGGTGATAAAAAGTCTCCGCTTCCACAGCTTTGCCGGAGTCACCTAGTGCAG”, 8060 fluorescence intensity (a.u.).
For “ATTTTGCGAGCTTGGGGTTGGGCTCGAGCTCGGTTCGTTACGGAGTCACCTAGTGCAG”, the binding signal was 9980 fluorescence intensity (a.u.).
With “ATACACCACACTGCTGCATGCTCACCACCACACCTCACTCCGGAGTCACCTAGTGCAG” the figure was 8430 fluorescence intensity (a.u.); with “ATGTATGCGTTTAGTTTGTTGGTAATACCAATTGTTTAGTCGGAGTCACCTAGTGCAG”, 10600 fluorescence intensity (a.u.); with “ATTCTCCACCCAATCCACACCAATCCCACGGGGAGAGAAACGGAGTCACCTAGTGCAG”, 8210 fluorescence intensity (a.u.).
With “TTTCATTATCTGTTGCTGTGATGTTCTTAGCTTCTATGTGCGGAGTCACCTAGTGCAG”, the binding signal is 10000 fluorescence intensity (a.u.).
Turning to “TCCGGAATCCACTGCCTTGTTAGTTGCTGCACAGTTCACACGGAGTCACCTAGTGCAG”, the binding signal is 10500 fluorescence intensity (a.u.).
With “GGCCATATGTACTTCTCTTTTTCTTTTTCTTTTTTTGGAACGGAGTCACCTAGTGCAG” the figure was 9630 fluorescence intensity (a.u.).
Take “CGCTCTGCAGCGCCGCGTCCATCAGCCCCGCCTTCGCCACCGGAGTCACCTAGTGCAG”: the binding signal was 11200 fluorescence intensity (a.u.).
In the case of “TCACGTTTTCCATCCATATCTTTTTTTTTTCCTGTCTTCTCGGAGTCACCTAGTGCAG”, the binding signal was 8280 fluorescence intensity (a.u.).
For the sequence “TATATATTGTTTTTTTTTACGTTGTTGGTTCCGGATGTGACGGAGTCACCTAGTGCAG”, the binding signal was 9930 fluorescence intensity (a.u.).
For “AAATCTCCACCTGATTCGGCGCTCGGCATTGGTCCCTGAACGGAGTCACCTAGTGCAG” the value was 9030 fluorescence intensity (a.u.); for “GAAGAACCCGGCCCGACCCGACCCATTACCCAATAACCAGCGGAGTCACCTAGTGCAG”, 8310 fluorescence intensity (a.u.).
With “CGTCGCCGCCGCCGCCGCCAACACCAACCAACTGCGGCTTCGGAGTCACCTAGTGCAG” the figure was 10600 fluorescence intensity (a.u.); with “CCTCCGCGTCCATTTCCATCACGCTCCACTCGCCTCGCTGCGGAGTCACCTAGTGCAG”, 9320 fluorescence intensity (a.u.).
With “GCCTCCGCCGCCGCCGCCGCCCGCCGGCCATCTCCGTCGACGGAGTCACCTAGTGCAG” the figure was 13900 fluorescence intensity (a.u.); with “GGGAGGGGTGGTTCCTCGAGGTGTAGGTGGGTGGCGCGCTCGGAGTCACCTAGTGCAG”, 13300 fluorescence intensity (a.u.).
For the sequence “CCACAGATATTTTCTCCTTTTTTTTTCCTTTTTCTTTTTCCGGAGTCACCTAGTGCAG”, the binding signal was 14000 fluorescence intensity (a.u.).
With “CGAGCAGTCCCTTAATCTCTCTCTTAATATGAGTAAACATCGGAGTCACCTAGTGCAG” the figure was 9230 fluorescence intensity (a.u.).
For “GCAACACCTCCCCTGTTCTTGCTCTGTTTCCTCACTCTGTCGGAGTCACCTAGTGCAG” the value was 10200 fluorescence intensity (a.u.).
With “ACACGCACACAAACCCTACCCCTATGAGCATTTTCGAAGACGGAGTCACCTAGTGCAG” the figure was 9320 fluorescence intensity (a.u.); with “GCTGCTCCCGACGACGTGCTTCATATCGCGCATGCCCTCTCGGAGTCACCTAGTGCAG”, 10200 fluorescence intensity (a.u.); with “CATGCTTAGCTTCTGTACGTATGCACATCTACCTCTTCATCGGAGTCACCTAGTGCAG”, 10300 fluorescence intensity (a.u.).
With “AGTTCAGACTCCAACTTGGGTCAGATCTCGTTTCCATGACCGGAGTCACCTAGTGCAG”, the binding signal was 8150 fluorescence intensity (a.u.).
Regarding “ACTAAATTTCACGAATATTACATCATTTTTTTCATCTCTTCGGAGTCACCTAGTGCAG”, the binding signal is 8680 fluorescence intensity (a.u.).
For “TATTGTTGTGACTTCCCTTGTCGCCAATGGCTTACTCATTCGGAGTCACCTAGTGCAG” the value was 10200 fluorescence intensity (a.u.); for “GTGATCTTTGTTGTTGTGAGTTGTGACCGGCCTGCAGCCGCGGAGTCACCTAGTGCAG”, 9730 fluorescence intensity (a.u.).
Turning to “TCAATCGTCGTCTCAAGCCTCTTAATTGGGCGCCTTTTCACGGAGTCACCTAGTGCAG”, the binding signal was 8210 fluorescence intensity (a.u.).
With “ATGGTAGGATCGTGTGTGTGTGTGTGTACATATATTGTTTCGGAGTCACCTAGTGCAG” the figure was 10300 fluorescence intensity (a.u.); with “GTTGTTTATTTATGTTGGCTTTCTCTTTTCTAGTATATAGCGGAGTCACCTAGTGCAG”, 9210 fluorescence intensity (a.u.).
Turning to “ACTGTTCTTGTGTCTTTGTTAGGAGTAGCTAACAATTAGCCGGAGTCACCTAGTGCAG”, the binding signal is 9500 fluorescence intensity (a.u.).
